Assay results taken from US20180237502A1.
Changes are numbered by the printed parent chain. Results are given in words; binding and its absence hold for the method and conditions named. Some binding calls cover weakened binding; strength is not graded here.

The chains behind the UniProt entries cited, without tags or fusion partners. Residues count along the entry.
UniProt Q05320, residues 33-637: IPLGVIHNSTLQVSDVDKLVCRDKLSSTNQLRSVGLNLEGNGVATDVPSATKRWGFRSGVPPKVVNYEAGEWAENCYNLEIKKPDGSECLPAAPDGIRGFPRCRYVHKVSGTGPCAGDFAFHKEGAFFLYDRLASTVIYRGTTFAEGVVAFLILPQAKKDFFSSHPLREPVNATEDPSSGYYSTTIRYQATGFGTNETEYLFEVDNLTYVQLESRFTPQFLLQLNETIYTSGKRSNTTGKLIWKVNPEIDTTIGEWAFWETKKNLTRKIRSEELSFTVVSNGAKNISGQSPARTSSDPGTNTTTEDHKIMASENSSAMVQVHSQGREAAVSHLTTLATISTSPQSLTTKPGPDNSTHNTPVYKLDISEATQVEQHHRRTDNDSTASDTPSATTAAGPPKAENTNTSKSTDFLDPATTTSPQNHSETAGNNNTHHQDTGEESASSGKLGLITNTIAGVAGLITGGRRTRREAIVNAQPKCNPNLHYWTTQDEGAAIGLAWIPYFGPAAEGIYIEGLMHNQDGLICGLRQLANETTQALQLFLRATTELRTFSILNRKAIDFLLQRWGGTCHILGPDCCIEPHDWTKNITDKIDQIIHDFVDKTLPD
UniProt Q66799, residues 34-638: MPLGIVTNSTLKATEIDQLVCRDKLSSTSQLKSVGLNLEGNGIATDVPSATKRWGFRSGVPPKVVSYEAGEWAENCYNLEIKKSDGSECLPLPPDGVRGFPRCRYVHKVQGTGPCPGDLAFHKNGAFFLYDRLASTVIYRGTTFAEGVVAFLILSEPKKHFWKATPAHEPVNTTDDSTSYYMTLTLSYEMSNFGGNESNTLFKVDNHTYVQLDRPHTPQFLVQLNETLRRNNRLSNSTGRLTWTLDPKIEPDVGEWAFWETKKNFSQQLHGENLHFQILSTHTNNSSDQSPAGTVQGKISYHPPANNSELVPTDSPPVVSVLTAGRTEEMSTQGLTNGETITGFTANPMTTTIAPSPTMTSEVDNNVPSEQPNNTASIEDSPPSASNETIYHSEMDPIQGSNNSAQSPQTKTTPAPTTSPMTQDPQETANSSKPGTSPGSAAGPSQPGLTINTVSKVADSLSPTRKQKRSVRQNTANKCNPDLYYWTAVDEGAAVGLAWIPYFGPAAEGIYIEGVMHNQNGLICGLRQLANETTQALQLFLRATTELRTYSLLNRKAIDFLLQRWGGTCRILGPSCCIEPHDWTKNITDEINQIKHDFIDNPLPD

B1: macaque monoclonal antibody FVM09 (antibody, V domains shown)
VH: EVQLVQSGAEVKRPGESLTISCKTSGYSFTDSWVAWVRQMPGKGLEWLGSIYPGDSETKYNPSFQGHVTISADKSVTTTYLKWSSLKASDTATYYCVKGSETWGQGVLVTVSS
VL: QLVLTQPASLSASPGASASLTCTFSGGINVAGYNILWYQQKAGSPPRYLLRYKSDSTKDQGSGVPSRFSGSKDASANTGILRISGLQSEDEADYYCAIGHSSGWIFGGGTRLTVL
B2: macaque monoclonal antibody FVM11 (antibody, V domains shown)
VH: B1 VH
VL: B1 VL with Q1N, L2F, V3M

Columns and labels:
[1] = molecular target: EBOV glycoprotein (purified EBOV GP) (Ebola virus (EBOV)) (UniProt Q05320); assay: Western blot, denatured glycoprotein (data not shown)
[2] = molecular target: RESTV glycoprotein (Reston virus (RESTV)) (UniProt Q66799); assay: as above

Binder	binding [1]	binding [2]
B1	binds	binds
B2	binds	binds
